The series is described as follows: Time-resolved fluorescence (time-correlated single photon counting) in the presence of CuSO4. Conditions: for fluorescence lifetime (decay time): CuSO4 10-40 μM (above 8 μM), 10 μM probe; for fluorescence lifetime: up to 8 μM CuSO4, 10 μM probe.

For `O=P(O)(O)c1cccc(-c2c3nc(c(-c4cccc(P(=O)(O)O)c4)c4ccc([nH]4)c(-c4cccc(P(=O)(O)O)c4)c4nc(c(-c5cccc(P(=O)(O)O)c5)c5ccc2[nH]5)C=C4)C=C3)c1` [m-H8TPPA, 5,10,15,20-tetrakis [m-phenylphosphonic acid] porphyrin], the “fluorescence lifetime (decay time)” value came to 1.6 ns and the fluorescence lifetime was found to be 7.7 ns.

In the case of `O=P(O)(O)c1ccc(-c2c3nc(c(-c4ccc(P(=O)(O)O)cc4)c4ccc([nH]4)c(-c4ccc(P(=O)(O)O)cc4)c4nc(c(-c5ccc(P(=O)(O)O)cc5)c5ccc2[nH]5)C=C4)C=C3)cc1` [p-H8TPPA, 5,10,15,20-Tetrakis [p-phenylphosphonic acid] porphyrin], the “fluorescence lifetime (decay time)” value was 1.7 ns and the fluorescence lifetime worked out at 8.3 ns.
